The record followed here is paper PMC3826745.

No constants are given. Whether binding was seen depends on the method and setting. In cells and extracts the contact can be indirect. Some entries that bind do so weakly or less than the wild type. Tags and fused reporters may be left off the sequences shown.

Assay [1] deals with T1, N-terminally tagged Neurospora crassa eIF3k (Neurospora crassa) (UniProt Q7S2R9).
T1 sequence: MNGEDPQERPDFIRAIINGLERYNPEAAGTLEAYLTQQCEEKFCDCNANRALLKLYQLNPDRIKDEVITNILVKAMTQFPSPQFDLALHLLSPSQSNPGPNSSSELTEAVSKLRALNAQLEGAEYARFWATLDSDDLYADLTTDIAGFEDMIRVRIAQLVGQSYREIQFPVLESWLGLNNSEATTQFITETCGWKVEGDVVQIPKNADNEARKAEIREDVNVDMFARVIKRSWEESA
The assay is described as follows: co-IP; anti-FLAG affinity purification from N. crassa extracts, Coomassie gel; N-terminally tagged eIF3k in the ΔeIF3hk strain.

Assay [2] deals with T1, N-terminally tagged Neurospora crassa eIF3k (Neurospora crassa). The assay is described as follows: co-IP; anti-FLAG affinity purification from N. crassa extracts, FLAG peptide elution, Coomassie gel; N-terminally tagged eIF3h in ΔeIF3h, N-terminally tagged eIF3k in ΔeIF3k, or heterokaryon with N-terminally tagged eIF3k and eIF3l (all 12 subunits present).
Assay [3] addresses T2, N-terminally tagged Neurospora crassa eIF3h (Neurospora crassa) (UniProt Q7S9Y9).
T2 sequence: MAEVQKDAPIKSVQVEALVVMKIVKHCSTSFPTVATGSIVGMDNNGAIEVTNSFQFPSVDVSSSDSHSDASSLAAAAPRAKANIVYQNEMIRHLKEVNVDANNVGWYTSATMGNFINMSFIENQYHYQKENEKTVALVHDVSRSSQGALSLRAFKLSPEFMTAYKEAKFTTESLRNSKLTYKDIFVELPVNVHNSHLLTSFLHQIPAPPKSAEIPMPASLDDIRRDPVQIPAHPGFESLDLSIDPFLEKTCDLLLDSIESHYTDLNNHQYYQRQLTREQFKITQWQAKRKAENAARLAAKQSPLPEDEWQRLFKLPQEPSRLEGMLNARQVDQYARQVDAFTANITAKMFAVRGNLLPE
The assay is described as above.

B1: Neurospora crassa eIF3l (protein, UniProt Q7SB62 1-474)
chain: MSAFQQAQAPARAIDPDSDVEEEALVNDYKEQVQYEEDDAESTQMSLAAQTDDIQSRLAAAAQPLDYSAGLEVKFSSYDSYCSLFHFILNSEGPVDLEPPSYYWAWDVIDEFIYQFNSFSSYRARIARQGNNEEEIAMLRENPNTWGCYSVLNVLYSLIQKSQITEQLAAMKRNEDPAAVAGEYGSKNLYKMLGYFSIIGLLRVHTLLGDFSLALKTLDDIELNKKAMFARVMAAHFTTYYYVGFSYMMMRRYADAIRMFSHILVYVSRTKNFQKNAQYDSITKKNDQMYALIAICVAFQPTRLDDTIHTALREKYGDQLLKLQRGGPEALPIYEELFRTACPKFISPVPPNFDEPEANIDPIEHHLSVFMDEVKTNMFNPTIKSYLRLYTTMDLKKLAGFLEVKPEELRGWLMVNKQRTKQLRWTDGGLLEGELVNVSDLDYALQGDLIHISEAKVGRKLVDWYLRNLSRTYA
With B1, the binding result in assay [1] and in assay [2] was “binds” throughout.

B2: Neurospora crassa eIF3j (protein, UniProt Q7S931 1-274)
chain: MSGKKWDEEEEESSAPNSPVLAPGRRRFDDEEGNESDVLDSWDAAEDSEVEREKAKKAAEAKAKAEAEAAANKKSKAQRIAERQAERARQLAEDSDAEEETEAERRERLRREQKESDLKHAEDLFAGIGISNDRKVVSKGTIVQIDPKDPNNTIDISTLALFNPTTKTQFETLRTTLGPMIGKLSPKPHYTLFLQEFSKQLAKDLKSDEIKKIASTLTALSNEKLKEEKAAEKGGKKSKAAKTKTSLAGVGRGGAIAEAHDTYDDDAFGDDDFM
Regarding B2, the binding entry in assay [3] and in assay [2] was “no binding” throughout.

B3: Neurospora crassa eIF3m (protein, UniProt Q7SEK1 1-434)
chain: MATPQLIFVDGTFAELAQEMADFVQVGEQVQPLLEQDKREDALDLIVKASHSLNAAPEKDFTPAYNLLIHLVLQSEEPKKYLPTLCANLLKPITSSPTHGFTLASNALTTIFNLLDKSNPLRFNVFMQIVRFIRQNSQFDLLKPRLKNVEGWLQEWKSDSESQRKLYVEVSDAANDGGDQEESYFYLLKALATFDRDNQDEVASDEAQKLSLRALRMAISSPTRFDFNDLRSLPSVHALSDSHPVYSQLLDIFTEQDLEDYNDFRDEHQGWIENEKLDHEKLQRKMRLLTFASLAASTPNREIPYASIAKALQIPDEDVEMWTIDVIRSKLVEGRLSQKQKVFLVHRTTYRVFGEKQWRELGTRVDQFKTVVDRLVGVVRKAQTDVEAQREREQQELERKLANAGLGESEQRGGNRGGRTGGARQTRQRTDDDD
As for B3, the binding entry in assay [3] was “binds”.
